Measurements from patent US20260243780A1.
Results are given in words; binding and its absence hold for the method and conditions named. Binding seen in cells or lysates may run through a third protein. These calls come from enrichment with a bait or labelling near it, and not all partners need be listed. Tags and fused reporters may be left off the sequences shown.

The chains behind the UniProt entries cited, without tags or fusion partners. Residues count along the entry.
UniProt P08195, residues 103-630: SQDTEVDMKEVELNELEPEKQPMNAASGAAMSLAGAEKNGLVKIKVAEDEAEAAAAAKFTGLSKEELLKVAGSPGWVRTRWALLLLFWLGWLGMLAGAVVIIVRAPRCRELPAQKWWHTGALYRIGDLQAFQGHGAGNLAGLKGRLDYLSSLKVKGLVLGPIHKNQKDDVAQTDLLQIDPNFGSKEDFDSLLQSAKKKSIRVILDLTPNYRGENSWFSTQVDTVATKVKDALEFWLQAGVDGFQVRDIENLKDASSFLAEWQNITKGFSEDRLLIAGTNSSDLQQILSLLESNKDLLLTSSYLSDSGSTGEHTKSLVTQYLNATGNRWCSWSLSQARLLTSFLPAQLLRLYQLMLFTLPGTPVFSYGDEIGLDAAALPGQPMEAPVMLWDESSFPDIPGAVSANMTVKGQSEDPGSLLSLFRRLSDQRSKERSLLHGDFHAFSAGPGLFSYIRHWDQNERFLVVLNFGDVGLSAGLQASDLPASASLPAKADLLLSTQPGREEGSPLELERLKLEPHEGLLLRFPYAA

Columns and labels:
[1] = target: SLC3A2 endogenous to 293T cells (human) (UniProt P08195); assay: co-immunoprecipitation, protein mass spectrometry identification
[2] = target: TFRC (transferrin receptor protein 1) endogenous to 293T cells (human) (UniProt P02786); assay: as above
[3] = target: SLC3A2 endogenous to 293T cells (human) (UniProt P08195); assay: co-immunoprecipitation with anti-His antibody from transfected 293T lysate, mass spectrometry identification
[4] = target: TFRC (transferrin receptor protein 1) endogenous to 293T cells (human) (UniProt P02786); assay: as above

Measured: binding

B1: hCf48-his (human Cf48 with His tag, expressed from the hCf48-his-IRES-GFP plasmid in 293T cells) (peptide, not shown: small tags and cut ends)
peptide: EPAGSAVPAQSRPCVDCHAFEFMQRALQDLRKTACSLDARTETLLLQAERRALCACWPAGH
binds: [1] | [2] | [3] | [4]
